According to PubChem BioAssay AID540276 (National Center for Advancing Translational Sciences (NCATS), 2011):
Out of some 300,000 compounds screened, about 5,400 (1.8%) were called active. The shares of active, inactive and inconclusive entries below differ from those in the screen. Calls come from the whole dose curve; tested in HEK293 cells. Potencies of inconclusive entries are doubtful fits and often do not repeat.

Assay: qHTS for inhibitors of binding or entry into cells for Marburg Virus
Details: Marburg virus pseudotyped entry inhibition, cell reporter; series mostly up to 37.8 µM
Potency is the fitted concentration of half-maximal effect.

SMILES | Potency
c1ccc(-c2cn3c(n2)CCC3)cc1 | inconclusive: 31.6 µM [activator, single point]
O=C(CN(C(=O)CCC(=O)Nc1nccs1)c1ccc(F)cc1)NCCc1ccccc1 | inconclusive: 0.562 µM [inhibitor, full curve, poor fit]
N=c1c(C(=O)NCC2CCCO2)cc2c(=O)n3ccccc3nc2n1C1CCCCC1 (configuration not stated) | inconclusive: 20 µM [activator, single point]
Cn1c(NCc2c[nH]c3ccccc23)nc2ccccc21 | inconclusive: 17.8 µM [inhibitor, single point]
Cc1cccc2nc(CSc3nc4[nH]ncc4c(=O)n3-c3cccc(Cl)c3)cc(=O)n12 | active: 7.31 µM
O=C(Nc1ccc2c(c1)OCCO2)C1CCN(S(=O)(=O)c2cccs2)CC1 | inactive
CCCc1cc(=O)[nH]c(Nc2cc(Cl)ccc2OC)n1 | inactive
COc1ccc(-c2cc(-c3ccccc3)c(C#N)c(SCC(=O)Nc3ncc(C)s3)n2)cc1 | inconclusive: 3.16 µM [inhibitor, partial curve, poor fit]
O=C(NC(=O)N1CCCc2ccccc21)c1ccccc1 | inactive
O=C(/C=C/c1ccc([N+](=O)[O-])cc1)c1cccnc1 | inconclusive: 20 µM [inhibitor, partial curve, poor fit]
O=C(NC1CCCC1)C1CCN(c2cnccn2)CC1 | inactive
CC(=NCc1ccco1)c1c(C)[nH]n(-c2nc3ccccc3s2)c1=O | inconclusive: 7.3 µM [inhibitor, partial curve, poor fit]
COc1ccc(Cl)cc1NC(=O)C(C)N1CCN(C/C=C/c2ccccc2)CC1 (configuration not stated) | inconclusive: 35.5 µM [inhibitor, single point]
CCOC(=O)c1csc(-c2ccc3c(c2)CCO3)n1 | inconclusive: 6.31 µM [activator, single point]
O=C(CSc1ncn[nH]1)NCCc1ccc(Cl)cc1Cl | inconclusive: 35.5 µM [inhibitor, partial curve, poor fit]
Cc1cccc(CNC(=O)c2ccc(NC(=O)N3CCSc4ccccc43)cc2)c1 | inactive
O=C(Cc1ccc(Br)cc1)Nc1ccc2[nH]ncc2c1 | inactive
Cc1ccc(NS(=O)(=O)c2cc(C(=O)NCCCN(C)C)ccc2Cl)cc1Cl | inconclusive: 35.5 µM [inhibitor, single point]
CCC1CCCCN1S(=O)(=O)c1ccc(C(=O)Nc2nnc(C3CC3)o2)cc1 (configuration not stated) | inconclusive: 7.08 µM [inhibitor, partial curve, poor fit]
COc1ccc(OC)c(C(=O)c2ccc(C(=O)Nc3ccc4ccccc4c3)cc2)c1 | inconclusive: 0.891 µM [inhibitor, partial curve, poor fit]
Cc1cccc2nc(-c3cccnc3)c(Nc3ccccc3)n12 | inconclusive: 22.4 µM [inhibitor, partial curve, poor fit]
Cc1ccccc1NC(=O)N1CCNC(=O)C1CC(=O)Nc1cc(Cl)ccc1Cl (configuration not stated) | inconclusive: 5.01 µM [inhibitor, full curve]
CN1N=C(C(=O)Nc2ccc3c(c2)CCC3)CCC1=O | inconclusive: 4.47 µM [activator, single point]

SMILES | Potency
O=C(Cc1ccc(F)cc1)Nc1nnc(SCC(=O)NC2CCCC2)s1 | inactive
CC(C)C1C(=O)NC(=S)N1S(=O)(=O)c1ccc(C(C)(C)C)cc1 (configuration not stated) | inconclusive: 0.251 µM [activator, full curve, poor fit]
O=C(CNC(=O)c1cccs1)Nc1ncccc1O | inactive
CC1CCN(C(=O)C2CCN(S(=O)(=O)c3cc(Cl)ccc3Cl)CC2)CC1 | inactive
C[C@]12CCC(=O)CC1CCC1C2CC[C@@]2(C)C1CC[C@@]21CCO1 (some centres not stated) | inconclusive: 1.58 µM [activator, partial curve, poor fit]
O=C(COc1ccccc1[N+](=O)[O-])NCCC1=CCCCC1 | inconclusive: 3.16 µM [activator, single point]
COC(=O)c1ccc(N2OC3(C)C=CC2CC3)cc1 (configuration not stated) | inconclusive: 6.31 µM [activator, single point]
N=C1c2c(cc(=O)n3c2[nH]c2ccccc23)CN1CCN1CCOCC1 | inactive
CCc1cc2cc(C)cc(C)c2nc1SCC(=O)N1CCN(C(=O)c2ccco2)CC1 | inconclusive: 1.12 µM [inhibitor, full curve, poor fit]
O=Cc1cccn1-c1sc2c(c1C(=O)O)CCCC2 | inconclusive: 29.1 µM [activator, partial curve, poor fit]
CCN(CC)S(=O)(=O)c1cccc(C(=O)Nc2nc3cc4c(cc3s2)OCCO4)c1 | active: 18.3 µM
CCn1cc(S(=O)(=O)NC2CCCCC2)cn1 | inactive
CC(=O)N1CCCc2cc(S(=O)(=O)N3CCc4ccccc4C3)ccc21 | inactive
COc1cc(CNc2cccc(F)c2)cc(Br)c1O | inactive
Cc1cc(N=Cc2c(O)n(-c3cccc(Cl)c3)c(=O)c3ccccc23)no1 | inactive
CCOC(=O)/C=C1/N(C)c2ccccc2C1(C)C | inactive
CC1=C(n2nnc([N+](=O)[O-])n2)C(c2cccnc2)C(C#N)=C(N)O1 (configuration not stated) | inconclusive: 9.2 µM [inhibitor, partial curve, poor fit]
CCCCNC(=O)c1ccccc1Cl | inactive
Cc1ccc2cccc(N=Cc3c(C)[nH]n(-c4ccccc4)c3=O)c2n1 | inconclusive: 11.2 µM [inhibitor, partial curve, poor fit]
CCCc1cc(C(=O)Cc2nc3ccccc3s2)c(O)cc1O | inactive
CCCC(=O)c1cc(F)c(N2CCN(S(=O)(=O)c3ccccc3)CC2)cc1C | inconclusive: 29.1 µM [inhibitor, single point]
CN(C)CC/C=C1/c2ccc(F)cc2Sc2ccc(Cl)cc21 | active: 12.6 µM
O=C1NC(c2ccccc2)Nc2c1sc(=S)n2-c1ccccc1 (configuration not stated) | inactive

Three records picked at random from the list so far, as already listed:
SMILES | Potency
CCc1cc2cc(C)cc(C)c2nc1SCC(=O)N1CCN(C(=O)c2ccco2)CC1 | inconclusive: 1.12 µM [inhibitor, full curve, poor fit]
CC1CCN(C(=O)C2CCN(S(=O)(=O)c3cc(Cl)ccc3Cl)CC2)CC1 | inactive
CCN(CC)S(=O)(=O)c1cccc(C(=O)Nc2nc3cc4c(cc3s2)OCCO4)c1 | active: 18.3 µM
